Library screen at single concentrations

By UniProt entry, the sequences of proteins in these tests, tags left out. Residues count along the entry.
UniProt P9WPC5, whole entry: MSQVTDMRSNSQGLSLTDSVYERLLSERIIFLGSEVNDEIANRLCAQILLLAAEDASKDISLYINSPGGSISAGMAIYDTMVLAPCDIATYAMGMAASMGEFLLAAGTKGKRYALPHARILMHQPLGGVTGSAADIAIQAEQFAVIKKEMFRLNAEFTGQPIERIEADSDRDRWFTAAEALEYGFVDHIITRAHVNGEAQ
UniProt P9WPC3, whole entry partner: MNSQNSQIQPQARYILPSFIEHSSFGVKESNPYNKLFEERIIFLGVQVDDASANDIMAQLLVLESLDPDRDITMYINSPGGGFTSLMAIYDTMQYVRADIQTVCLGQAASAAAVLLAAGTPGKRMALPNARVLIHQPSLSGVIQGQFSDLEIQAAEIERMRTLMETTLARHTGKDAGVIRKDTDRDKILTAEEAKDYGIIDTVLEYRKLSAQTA
UniProt Q4DA54, 1-478: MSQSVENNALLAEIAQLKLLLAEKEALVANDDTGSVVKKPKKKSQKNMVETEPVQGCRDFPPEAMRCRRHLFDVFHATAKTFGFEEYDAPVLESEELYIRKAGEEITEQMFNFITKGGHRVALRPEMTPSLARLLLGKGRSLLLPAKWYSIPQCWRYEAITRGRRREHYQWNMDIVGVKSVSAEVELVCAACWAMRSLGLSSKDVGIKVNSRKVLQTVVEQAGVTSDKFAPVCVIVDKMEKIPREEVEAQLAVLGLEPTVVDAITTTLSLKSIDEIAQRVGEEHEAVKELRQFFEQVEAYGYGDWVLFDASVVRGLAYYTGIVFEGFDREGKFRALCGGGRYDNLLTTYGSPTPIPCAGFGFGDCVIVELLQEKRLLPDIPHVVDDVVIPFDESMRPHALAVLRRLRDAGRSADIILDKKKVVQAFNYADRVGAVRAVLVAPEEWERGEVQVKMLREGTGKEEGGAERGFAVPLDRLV
UniProt Q8IDJ8, 1-583: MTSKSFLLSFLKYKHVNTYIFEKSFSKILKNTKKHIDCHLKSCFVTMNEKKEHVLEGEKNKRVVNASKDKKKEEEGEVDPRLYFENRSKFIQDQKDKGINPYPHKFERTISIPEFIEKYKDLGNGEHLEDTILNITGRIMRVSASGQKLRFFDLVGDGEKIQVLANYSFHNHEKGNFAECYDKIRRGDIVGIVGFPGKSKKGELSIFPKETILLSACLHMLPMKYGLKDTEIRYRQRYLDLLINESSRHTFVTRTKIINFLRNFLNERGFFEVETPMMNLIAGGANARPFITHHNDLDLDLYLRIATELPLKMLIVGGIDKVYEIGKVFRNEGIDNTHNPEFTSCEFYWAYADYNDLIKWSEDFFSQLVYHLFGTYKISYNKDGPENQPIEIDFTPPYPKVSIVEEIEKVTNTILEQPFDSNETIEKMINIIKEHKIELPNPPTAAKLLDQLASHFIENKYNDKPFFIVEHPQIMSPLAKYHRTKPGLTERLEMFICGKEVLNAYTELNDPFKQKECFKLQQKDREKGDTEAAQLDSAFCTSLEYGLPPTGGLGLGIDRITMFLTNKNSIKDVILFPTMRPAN
UniProt P9WNZ1, whole entry: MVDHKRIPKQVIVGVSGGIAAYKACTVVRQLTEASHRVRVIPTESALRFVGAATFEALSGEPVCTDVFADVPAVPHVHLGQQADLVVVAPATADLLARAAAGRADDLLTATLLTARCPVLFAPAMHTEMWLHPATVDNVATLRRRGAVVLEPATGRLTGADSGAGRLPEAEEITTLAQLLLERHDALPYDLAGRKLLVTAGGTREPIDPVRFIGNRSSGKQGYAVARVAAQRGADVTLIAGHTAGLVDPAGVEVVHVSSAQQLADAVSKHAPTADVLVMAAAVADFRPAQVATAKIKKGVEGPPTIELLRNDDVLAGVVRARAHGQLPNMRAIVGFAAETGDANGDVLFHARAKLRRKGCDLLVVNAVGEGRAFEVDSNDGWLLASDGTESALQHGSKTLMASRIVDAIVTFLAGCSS
UniProt I6X8D2, whole entry: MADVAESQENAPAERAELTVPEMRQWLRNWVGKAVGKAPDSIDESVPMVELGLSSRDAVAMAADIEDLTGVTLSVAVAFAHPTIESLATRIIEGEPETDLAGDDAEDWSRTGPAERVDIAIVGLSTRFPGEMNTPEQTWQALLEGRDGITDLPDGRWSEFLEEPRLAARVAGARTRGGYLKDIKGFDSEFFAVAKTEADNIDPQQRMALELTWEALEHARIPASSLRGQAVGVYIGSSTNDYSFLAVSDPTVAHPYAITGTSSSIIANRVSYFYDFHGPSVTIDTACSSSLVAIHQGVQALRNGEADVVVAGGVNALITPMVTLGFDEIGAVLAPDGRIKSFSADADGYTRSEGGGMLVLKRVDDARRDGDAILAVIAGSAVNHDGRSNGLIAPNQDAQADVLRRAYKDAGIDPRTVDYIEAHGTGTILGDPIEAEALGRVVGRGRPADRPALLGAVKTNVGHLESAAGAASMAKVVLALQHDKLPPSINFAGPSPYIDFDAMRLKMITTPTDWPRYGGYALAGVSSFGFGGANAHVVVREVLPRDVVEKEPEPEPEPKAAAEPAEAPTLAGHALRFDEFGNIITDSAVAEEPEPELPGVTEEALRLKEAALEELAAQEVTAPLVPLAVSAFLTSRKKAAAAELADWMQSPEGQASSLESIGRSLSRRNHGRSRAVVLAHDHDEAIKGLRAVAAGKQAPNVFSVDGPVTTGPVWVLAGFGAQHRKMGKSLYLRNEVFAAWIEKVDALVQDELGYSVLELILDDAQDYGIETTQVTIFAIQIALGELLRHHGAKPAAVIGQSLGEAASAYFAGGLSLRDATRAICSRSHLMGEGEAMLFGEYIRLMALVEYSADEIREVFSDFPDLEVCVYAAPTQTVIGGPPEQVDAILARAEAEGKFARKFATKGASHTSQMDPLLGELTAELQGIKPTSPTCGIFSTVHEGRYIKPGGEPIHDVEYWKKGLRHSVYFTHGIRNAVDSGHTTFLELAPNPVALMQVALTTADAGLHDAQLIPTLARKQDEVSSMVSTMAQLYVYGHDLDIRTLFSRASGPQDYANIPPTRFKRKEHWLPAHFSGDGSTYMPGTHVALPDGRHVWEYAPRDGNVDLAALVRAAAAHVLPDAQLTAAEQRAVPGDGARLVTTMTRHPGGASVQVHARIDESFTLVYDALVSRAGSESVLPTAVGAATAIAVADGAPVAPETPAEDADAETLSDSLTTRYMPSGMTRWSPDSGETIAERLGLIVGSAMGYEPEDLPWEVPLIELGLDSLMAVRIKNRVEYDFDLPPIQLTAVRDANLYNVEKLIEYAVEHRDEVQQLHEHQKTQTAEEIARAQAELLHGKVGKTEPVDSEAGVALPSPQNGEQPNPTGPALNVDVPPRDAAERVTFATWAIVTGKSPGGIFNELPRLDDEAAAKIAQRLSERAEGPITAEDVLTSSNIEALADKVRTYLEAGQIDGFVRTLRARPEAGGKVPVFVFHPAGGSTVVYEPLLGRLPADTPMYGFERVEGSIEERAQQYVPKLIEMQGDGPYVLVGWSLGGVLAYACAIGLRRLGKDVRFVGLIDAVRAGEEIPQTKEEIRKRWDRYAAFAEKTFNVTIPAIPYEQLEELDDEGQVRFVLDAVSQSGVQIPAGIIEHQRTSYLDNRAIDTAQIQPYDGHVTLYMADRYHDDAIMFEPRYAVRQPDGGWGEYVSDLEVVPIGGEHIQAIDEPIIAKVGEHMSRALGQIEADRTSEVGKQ

ClpP1P2: 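Protease assay of ClpP1P2, read by the AMC dye that it sets free. Target: ClpP1P2, Mycobacterium tuberculosis (UniProt P9WPC5 and UniProt P9WPC3). Compounds at 50 µM. Direction is inferred from only a few compounds that gave an IC50; most scored high, so higher reads as stronger inhibition. Most other retested compounds had strongly negative values. Of about 69,000 compounds tested this way, about 10 (0.015%) reached 50% or more in at least one test.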
TcHisRS: 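Enzyme assay of histidyl-tRNA synthetase; the read-out is not stated. Target: Histidine-tRNA ligase, Trypanosoma cruzi CL Brener (UniProt Q4DA54). Compounds at 30 µM. The record gives no direction; compounds that gave an IC50 in retests scored well above the rest, so higher reads as stronger inhibition. Of about 69,000 compounds tested this way, about 31 (0.045%) reached 50% or more in at least one test.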
PfKRS1: 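Enzyme assay of the cytosolic lysyl-tRNA synthetase in 384-well plates, read by luminescence. Target: Lysine-tRNA ligase, Plasmodium falciparum 3D7 (UniProt Q8IDJ8). Compounds at 30 µM. Higher reads as stronger inhibition, judged from the few compounds that gave an IC50. Of about 69,000 compounds tested this way, about 49 (0.071%) reached 50% or more in at least one test.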
CoaBC: 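Coenzyme A biosynthesis protein CoaBC, Mycobacterium tuberculosis (UniProt P9WNZ1). Enzyme assay of CoaBC with a phosphate dye (Biomol Green) read at 650 nm. Compounds at 30 µM. Higher reads as stronger inhibition, judged from the few compounds that gave an IC50. Most strong results did not repeat in a second test. Of about 67,000 compounds tested this way, about 40 (0.06%) reached 50% or more in at least one test.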
Leishmania in macrophages: 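Cell assay of Leishmania donovani living inside macrophages; the read-out is not stated. Tested at 30 µM. The record gives no direction; compounds that gave an IC50 in retests scored well above the rest, so higher reads as stronger inhibition. About 69,000 compounds were tested under these conditions; 1.5% (about 1,000) showed 50% or more at least once.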
Pks13 thioesterase: 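Enzyme assay of the thioesterase domain of polyketide synthase 13; the read-out is not stated. Target: Polyketide synthase Pks13, Mycobacterium tuberculosis (UniProt I6X8D2). Tested at 30 µM. The record gives no direction; the compounds picked for IC50 retests had high values, so higher reads as stronger inhibition. About 67,000 compounds were tested under these conditions; 0.46% (about 300) showed 50% or more at least once.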

Values are the deposited “Percent Effect”, in %. The record does not define 0% and 100%; most values in the screen are far below 50% and negative numbers occur (in some assays of this library far below -100). The compounds are a random part of those screened.

CCc1ccccc1NC(=O)NCc1nnc(SC)n1C read ClpP1P2: -7.768%; TcHisRS: 3.448%; PfKRS1: -1.011%; CoaBC: 2.871%; Leishmania in macrophages: 23.33%; Pks13 thioesterase: 1.44%. For CN(Cc1cc(-c2ccccc2)no1)Cc1nccn1C the result was ClpP1P2: -0.6582%; TcHisRS: 3.614%; PfKRS1: -4.751%; CoaBC: -2.475%; Leishmania in macrophages: -47.61%; Pks13 thioesterase: -14.69%. With CC1CN(C)CCN1C(=O)c1ccn(-c2ccccc2)n1 (centres undefined) the screen gave ClpP1P2: 22.79%; TcHisRS: 1.149%; PfKRS1: 0.4513%; CoaBC: 2.452%; Leishmania in macrophages: -3.03%; Pks13 thioesterase: -17.86%. Cc1nc(CNC(=O)NCc2ccc(OCC3CC3)nc2)cs1 read ClpP1P2: -16.37%; TcHisRS: 1.667%; PfKRS1: 6.008%; CoaBC: 14.11%; Leishmania in macrophages: -7.786%; Pks13 thioesterase: -7.578%.

Cc1cnccc1NCCNC(=O)C1CCCN(Cc2ccco2)C1 (centres undefined) gave ClpP1P2: 3.403%; TcHisRS: 0%; PfKRS1: -0.4894%; CoaBC: 5.913%; Leishmania in macrophages: 54.03%; Pks13 thioesterase: -24.26%. With CN1CCc2c(C#N)c(NCCCN3CCOCC3)n3cnnc3c2C1 the screen gave ClpP1P2: -15.83%; TcHisRS: 0%; PfKRS1: 11.43%; CoaBC: 3.374%; Pks13 thioesterase: -17.42%. For COc1ccnc(N(C)Cc2ccccc2O)n1 the result was ClpP1P2: -21.02%; TcHisRS: -0.5405%; PfKRS1: 3.37%; CoaBC: 8.12%; Leishmania in macrophages: -22.03%; Pks13 thioesterase: -20.96%. CCCS(=O)(=O)N1CCC(NCc2c(C)nn(C)c2OC)CC1 gave ClpP1P2: -1.137%; TcHisRS: 1.02%; PfKRS1: 3.836%; CoaBC: 14.29%; Leishmania in macrophages: 3.771%; Pks13 thioesterase: -3.683%.

For CC(C)C(C)NC(=O)Nc1ccc(CS(=O)(=O)C(C)C)cc1 (centres undefined) the result was ClpP1P2: -5.359%; TcHisRS: 2%; PfKRS1: 1.413%; CoaBC: 2.767%; Leishmania in macrophages: -8.838%; Pks13 thioesterase: -34.17%. Cc1ccc(CN(C)C(=O)c2cnsn2)cc1 read ClpP1P2: -25.13%; TcHisRS: 2.404%; PfKRS1: 2.429%; CoaBC: -1.399%; Leishmania in macrophages: 19.42%; Pks13 thioesterase: 5.433%. Cc1cccc(-c2c[nH]c(C3CCCN3)n2)c1 (centres undefined) read ClpP1P2: -6.93%; TcHisRS: -1.911%; PfKRS1: 0.02462%; Pks13 thioesterase: 1.597%. Result for CCc1cccc(NC(=O)CNc2ccccc2OCCC(=O)OC)c1 was ClpP1P2: 0.3867%; TcHisRS: 9.278%; PfKRS1: 2.756%; CoaBC: -9.198%; Leishmania in macrophages: 2.973%; Pks13 thioesterase: 10.31%.

For COc1ccc(NC(=O)Cn2cc(-c3ccccc3)ncc2=O)cn1 the result was ClpP1P2: -17.15%; TcHisRS: 2.424%; PfKRS1: 5.777%; CoaBC: 5.875%; Leishmania in macrophages: -62.62%; Pks13 thioesterase: -17.42%. Cc1cc(C)n(-c2ccc(CNCc3ccc(C)o3)cn2)n1 gave ClpP1P2: -37.52%; TcHisRS: 2.367%; PfKRS1: 1.205%; CoaBC: 6.717%; Leishmania in macrophages: 8.793%; Pks13 thioesterase: -0.6623%. With CN1CC2(CCN(Cc3ccoc3)CC2)COc2ccccc2S1(=O)=O.O=C(O)C(F)(F)F the screen gave Leishmania in macrophages: 28.57%. Result for Cc1ccc(CN2CCC3(CCCN(Cc4ccc(F)c(F)c4)C3)C2)o1 (centres undefined) was ClpP1P2: -6.598%; TcHisRS: 10.87%; PfKRS1: -2.841%; CoaBC: -7.46%; Leishmania in macrophages: -12.81%; Pks13 thioesterase: -6.942%.

[H][C@@]12C[C@H](C(=O)NCC(C)C)[C@@]([H])(CN(C(=O)NCC3CCCCC3)C1)O2 gave Leishmania in macrophages: 4.087%. For COc1ccccc1C(=O)N1CCC(Nc2ccc(C)nn2)CC1 the result was ClpP1P2: 4.66%; TcHisRS: 8.451%; PfKRS1: 0.5584%; CoaBC: 6.489%; Leishmania in macrophages: 26.78%; Pks13 thioesterase: -21.41%. With Cc1ccc(N2CCC3(CCCN(C(=O)c4cnccn4)C3)C2)nn1 (centres undefined) the screen gave ClpP1P2: 5.162%; TcHisRS: 5.6%; PfKRS1: 6.723%; CoaBC: 3.609%; Leishmania in macrophages: 26.31%; Pks13 thioesterase: 10.97%. For O=C(O)C(F)(F)F.O=C(O)C(F)(F)F.O=C(O)C(F)(F)F.c1ccc(CN2Cc3[nH]nc(COc4cccnc4)c3C2)nc1 the result was Leishmania in macrophages: 35.95%.

With Cc1nn(C)cc1S(=O)(=O)N(C)[C@@H]1CCC[C@@H](n2ccnc2)[C@@H]1O the screen gave ClpP1P2: -12.1%; TcHisRS: 4.215%; PfKRS1: -1.016%; CoaBC: 7.524%; Leishmania in macrophages: -6.873%. With COc1cccc(C(C(=O)O)N2CCSCC2)c1F (centres undefined) the screen gave ClpP1P2: 14.07%; TcHisRS: 1.786%; PfKRS1: 6.279%; CoaBC: 0.6289%; Leishmania in macrophages: 10.92%; Pks13 thioesterase: -8.851%. For Cc1nc(NC(=O)C(C)S(C)(=O)=O)sc1Cc1ccccc1F (centres undefined) the result was ClpP1P2: 2.356%; TcHisRS: 0%; PfKRS1: -1.972%; CoaBC: 14.47%; Leishmania in macrophages: 21.36%; Pks13 thioesterase: -39.15%. COCc1ccc(C(=O)N2CCC(Oc3ccccc3)(C(=O)O)CC2)o1 read ClpP1P2: -16.1%; TcHisRS: 0%; PfKRS1: 0.6652%; CoaBC: 4.087%; Leishmania in macrophages: -11.4%; Pks13 thioesterase: -8.315%.

Cc1nc2c(c(C)c1CC(=O)Nc1ccnn1C(C)C)c(=O)[nH]n2C read ClpP1P2: -8.138%; TcHisRS: 7.143%; PfKRS1: 1.295%; CoaBC: 4.619%; Leishmania in macrophages: 24.34%; Pks13 thioesterase: -6.549%.

Repeated from the top, 3 entries:

Compound	ClpP1P2	TcHisRS	PfKRS1	CoaBC	Leishmania in macrophages	Pks13 thioesterase
CCc1ccccc1NC(=O)NCc1nnc(SC)n1C	-7.768	3.448	-1.011	2.871	23.33	1.44
CN(Cc1cc(-c2ccccc2)no1)Cc1nccn1C	-0.6582	3.614	-4.751	-2.475	-47.61	-14.69
CC1CN(C)CCN1C(=O)c1ccn(-c2ccccc2)n1 (centres undefined)	22.79	1.149	0.4513	2.452	-3.03	-17.86

From ChEMBL document CHEMBL3988442, “University of Dundee, Small-Polar-MMV Screening Library” (2021).